PubChem BioAssay AID743454, Peter MacCallum Cancer Centre | 2014

Aim: 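Genes whose loss kills vorinostat-resistant colon cancer cells under vorinostat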 (primary screen)
Cells: human HCT116-VR colon cancer cells, selected for vorinostat resistance
Knock-down reagent: siRNA pool against human genes, 40 nM siRNA pool
Time to read-out: vorinostat for 24 h, read-out about 72 h after transfection
Challenge: vorinostat at 2.5 µM final
Measured: 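Cell viability by CellTiter-Fluor and caspase 3/7 activity by luminescence, each scaled to mock wells per plate, duplicates averaged, then robust z-scored over all plates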
Scale: viability robust z-score: higher = more viable cells than screen typical; caspase robust z-score: higher = more caspase 3/7 activity than screen typical
Active means: 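a knock-down is a hit when classed RV1 or RV2 for lowered viability, or CA1 or CA2 for caspase activation; those lethal without drug were dropped; hits were retested singly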
The deposit covers about 18,000 reagents; this is an unselected part. In the full data, 450 (2.5%) got an active call. 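Single biological run; no consistent viability z cut-off exists, so the class columns, not z-scores, define the calls.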 Entries without a mark were called inactive.

gene	viability hit class	caspase hit class	viability robust z-score	caspase robust z-score
FSIP1 (fibrous sheath interacting protein 1)	no change	no change	1.12	-0.29
ERCC3 (ERCC excision repair 3, TFIIH core complex helicase subunit)	no change	no change	0.09	-0.94
ADAM32 (ADAM metallopeptidase domain 32)	no change	no change	-1.31	-1.01
NOXRED1 (NADP dependent oxidoreductase domain containing 1)	no change	no change	0.34	-0.37
MAPK10 (mitogen-activated protein kinase 10)	no change	no change	-0.12	-0.99
CD74 (CD74 molecule)	no change	no change	0.18	2.21
FGFR1 (fibroblast growth factor receptor 1)	no change	no change	-0.55	1.2
LILRB3 (leukocyte immunoglobulin like receptor B3)	no change	no change	-0.4	0.02
CACNB3 (calcium voltage-gated channel auxiliary subunit beta 3)	no change	no change	0.5	3.15
B3GNT8	no change	no change	-0.64	-0.52
POFUT1 (protein O-fucosyltransferase 1)	no change	no change	-1.12	1.8
NQO1 (NAD(P)H quinone dehydrogenase 1)	no change	no change	-0.3	0.85
SMTN (smoothelin)	no change	no change	-0.39	0.97
PYROXD2 (pyridine nucleotide-disulphide oxidoreductase domain 2)	no change	no change	0.77	-0.11
LSM5	no change	no change	-1.19	-0.55
TTC39A (tetratricopeptide repeat domain 39A)	no change	no change	-1.48	4.57
OR9G1 (olfactory receptor family 9 subfamily G member 1)	no change	no change	0.78	-1.26
TRIM65 (tripartite motif containing 65)	no change	no change	-0.15	-0.53
PIK3CD	no change	no change	-0.34	-0.53
HYLS1 (HYLS1 centriolar and ciliogenesis associated)	no change	no change	-0.94	0.29
IFITM5 (interferon induced transmembrane protein 5)	no change	no change	0.8	-0.24
NFE2L2 (NFE2 like bZIP transcription factor 2)	no change	no change	-0.52	0.21
CHP2 (calcineurin like EF-hand protein 2)	no change	no change	0.94	1.23
KCNJ8 (potassium inwardly rectifying channel subfamily J member 8)	no change	no change	0.64	0.16
SEPTIN7 (septin 7)	no change	no change	1.75	-0.48
RCBTB1 (RCC1 and BTB domain containing protein 1)	no change	no change	0.92	-0.72
PTPRE (protein tyrosine phosphatase receptor type E)	no change	no change	0.47	2.38
JMJD8 (jumonji domain containing 8)	no change	no change	0.61	-1
ZNF543 (zinc finger protein 543)	no change	no change	0.18	-1.19
FAM13B (family with sequence similarity 13 member B)	no change	no change	1.49	0.11
PBX4 (PBX homeobox 4)	no change	no change	0.82	-0.84
ARHGEF6 (Rac/Cdc42 guanine nucleotide exchange factor 6)	no change	no change	0.76	-0.78
HNRNPA0 (heterogeneous nuclear ribonucleoprotein A0)	no change	no change	0.32	-0.38
DLX4 (distal-less homeobox 4)	no change	no change	-0.24	0.24
ZC3H14 (zinc finger CCCH-type containing 14)	no change	no change	-0.43	0.24
ACOX3 (acyl-CoA oxidase 3, pristanoyl)	no change	no change	-0.2	-0.64
DPH5 (diphthamide biosynthesis 5)	no change	no change	-0.06	0.4
POU2F2 (POU class 2 homeobox 2)	no change	no change	-0.99	0.17
CRYGC (crystallin gamma C)	no change	no change	1.29	0.08
BAHCC1 (BAH domain and coiled-coil containing 1)	no change	no change	-0.3	0.18
ANXA8L1 (annexin A8 like 1)	no change	no change	0.87	-0.15
ZNF609 (zinc finger protein 609)	no change	no change	0	1.96
KLHL10 (kelch like family member 10)	no change	no change	-0.47	1.19
TRAF2 (TNF receptor associated factor 2)	no change	no change	-2.31	-0.07
MRS2 (magnesium transporter MRS2)	no change	no change	0.11	0.9
PRR21 (proline rich 21)	no change	no change	-0.05	1.87
UTP15 (UTP15 small subunit processome component)	no change	no change	-1.98	-0.16
LAMTOR4 (late endosomal/lysosomal adaptor, MAPK and MTOR activator 4)	no change	no change	-0.28	0.43
MCM8	no change	no change	1.25	-0.6
SLC45A3	no change	no change	-0.38	-1.29
KRR1 (KRR1 small subunit processome component)	no change	no change	0.94	0.36
KRT73 (keratin 73)	no change	no change	0.27	-0.61
ANKRD34B (ankyrin repeat domain 34B)	no change	no change	0.2	1.73
HIC1 (HIC ZBTB transcriptional repressor 1)	no change	no change	0.29	-0.7
ARSG (arylsulfatase G)	no change	no change	-1.27	-0.15
SRD5A3 (steroid 5 alpha-reductase 3)	no change	no change	-0.19	0.4
PAPPA2 (pappalysin 2)	no change	no change	0.84	-0.33
CHD3 (chromodomain helicase DNA binding protein 3)	no change	no change	1.3	1.6
NDUFV2 (NADH:ubiquinone oxidoreductase core subunit V2)	no change	no change	-1.91	-0.38
CELA2A (chymotrypsin like elastase 2A)	no change	no change	-1.94	2.31
SUMO4 (small ubiquitin like modifier 4)	no change	no change	0.83	2.27
PPARA (peroxisome proliferator activated receptor alpha)	no change	no change	0.44	-0.66
MORN1 (MORN repeat containing 1)	no change	no change	0.46	1.6
LOC389834 (ankyrin repeat domain 57 pseudogene)	no change	no change	1.12	-0.52
CLDN7 (claudin 7)	no change	no change	0.82	2.26
KCNV1	no change	no change	-0.22	-0.98
TFB2M (transcription factor B2, mitochondrial)	no change	no change	0.99	-0.92
APH1B (aph-1B gamma-secretase subunit)	no change	no change	-0.16	0.31
SERPINB9 (serpin family B member 9)	no change	no change	-0.88	0.08
PPARGC1B (PPARG coactivator 1 beta)	no change	no change	0.42	0.63
A2ML1 (alpha-2-macroglobulin like 1)	no change	no change	1.09	-0.62
SYT9 (synaptotagmin 9)	no change	no change	-0.78	-0.43
PRSS35 (serine protease 35)	no change	no change	0.08	0.12

3 entries from above, set out differently:
gene | viability hit class | caspase hit class | viability robust z-score | caspase robust z-score
CLDN7 (claudin 7) | no change | no change | 0.82 | 2.26
KCNV1 | no change | no change | -0.22 | -0.98
TFB2M (transcription factor B2, mitochondrial) | no change | no change | 0.99 | -0.92
